Data on 1 substance can be found in PMC8359590.

Chains of the proteins cited; added tags and fusions are not shown.
UniProt P49407: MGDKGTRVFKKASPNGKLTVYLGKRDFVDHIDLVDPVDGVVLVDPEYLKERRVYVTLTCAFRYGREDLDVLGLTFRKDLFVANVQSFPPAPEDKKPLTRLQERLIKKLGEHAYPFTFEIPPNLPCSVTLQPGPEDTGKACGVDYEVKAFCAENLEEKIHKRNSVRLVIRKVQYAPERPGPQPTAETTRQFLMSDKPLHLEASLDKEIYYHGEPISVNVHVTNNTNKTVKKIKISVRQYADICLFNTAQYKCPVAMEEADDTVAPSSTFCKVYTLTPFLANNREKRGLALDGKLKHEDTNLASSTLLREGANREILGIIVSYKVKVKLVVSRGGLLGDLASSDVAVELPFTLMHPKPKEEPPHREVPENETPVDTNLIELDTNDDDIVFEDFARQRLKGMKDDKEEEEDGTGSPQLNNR
UniProt Q04206: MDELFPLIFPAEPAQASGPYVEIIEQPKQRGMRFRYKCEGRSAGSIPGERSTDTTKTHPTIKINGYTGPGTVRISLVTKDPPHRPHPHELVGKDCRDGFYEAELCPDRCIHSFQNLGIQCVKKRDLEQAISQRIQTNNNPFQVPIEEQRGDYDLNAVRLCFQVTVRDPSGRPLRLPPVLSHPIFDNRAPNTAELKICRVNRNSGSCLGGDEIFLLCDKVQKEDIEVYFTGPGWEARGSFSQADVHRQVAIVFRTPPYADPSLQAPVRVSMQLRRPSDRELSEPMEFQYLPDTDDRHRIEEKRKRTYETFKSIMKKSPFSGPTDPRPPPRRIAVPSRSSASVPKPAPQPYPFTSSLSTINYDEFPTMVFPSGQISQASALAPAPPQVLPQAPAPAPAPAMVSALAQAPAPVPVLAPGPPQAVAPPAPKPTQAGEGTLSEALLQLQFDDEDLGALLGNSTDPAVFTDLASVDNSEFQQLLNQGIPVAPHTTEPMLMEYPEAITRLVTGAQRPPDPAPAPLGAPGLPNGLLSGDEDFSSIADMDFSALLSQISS

Results are given in words; binding and its absence hold for the method and conditions named. In cells and extracts the contact can be indirect. Some entries that bind do so weakly or less than the wild type.

The target in assay [1] is β-arrestin1 (ARRB1), endogenous in HepG2 cells (human (endogenous in HepG2)) (UniProt P49407). Briefly: co-IP; lysates of HepG2 cells treated with TNF-α (40 ng/ml); immunoprecipitation with anti-ARRB1 antibody on Protein A magnetic beads, 4 °C overnight; blots with anti-p65 or p-p65 antibodies.
Assay [2] concerns the target β-arrestin1 (ARRB1), overexpressed from a lentiviral vector in HepG2 cells (human) (UniProt P49407). The experiment in a line: co-IP; lysates of ARRB1-overexpressing HepG2 cells; immunoprecipitation with anti-GFP antibody on Protein A magnetic beads, 4 °C overnight; blots with ARRB1-, p65- and p-p65-specific antibodies.

As for “NF-κBp65 (p65, RelA), endogenous in HepG2 cells (from UniProt Q04206 1-551)”, the binding result in assay [1] and in assay [2] was “binds” each time.
